Measured values taken from patent US20120208873A1, “TEA POLYPHENOLS PRODUCTS FOR CEASING SMOKING AND TREATING AND/OR PREVENTING NICOTINE OR NICOTINE-DERIVED COMPOUNDS OR ESTROGEN INDUCED BREAST CANCER” (priority 2011, published 2012).
At least one compound was matched to its structure with a doubt left.

Test system: α9-nAChR protein
Test: E2-induced α9-nAChR protein in breast cancer cells with or without ER expression (immunoblotting)
Type: cell-based, human
Details: E2 10 nM, 24 h; ER+ (MCF-7 and BT483) compared with ER− (MDA-MB-231 and MDA-MB-453) cells

## C[C@]12CC[C@@H]3c4ccc(O)cc4CC[C@H]3[C@@H]1CC[C@@H]2O [E2, estradiol]
  E2-induced α9-nAChR protein induction: clearly detected
